Patent US20070258982A1

Legend:
[1] = target: human IL-22 (human); experiment: ELISA: plate coated with 1 µg/ml antigen, IgG added at 1 µg/ml, HRP goat anti-human IgG, A450
[2] = target: rat IL-22 (rat); experiment: as above
[3] = target: monkey IL-22 (monkey); experiment: SPR (BIA)
[4] = target: rat IL-22 (rat); experiment: SPR (BIA)
[5] = target: monkey IL-22 (monkey); experiment: real-time biospecific interaction analysis (BIA)
[6] = target: rat IL-22 (rat); experiment: real-time biospecific interaction analysis (BIA)

| Binder | binding [1] | binding [2] | other results |
| --- | --- | --- | --- |
| 376B10 IgG (non-germlined) (antibody, V domains shown) VH: EVQLVQSGAEVKKPGASVKVSCQASGYTFSDYYIHWVRQTPGQGFEWMGWVNPDTGGTRYAQKFQGWVTMTRDMSNTTAYMELPGLRDDDTAVYYCARDLTGYDQYTAWGQGTLVTVSS VL: QSVLTQPPSVSVAPGKTATITCGGNNFRNKRVHWYQQRPGQAPVLVIYYDSDRPSGIPERFSGSRSGNTATLTISRVEAGDEADFYCSTFDPFTDRPLFGGGTKLTVLG | binds |  |  |
| 354A08 IgG (germlined) (antibody, V domains shown) VH: QVQLVQSGAEVKKPGASVKVSCKASGYTFTDYYMHWVRQAPGQGLEWVGWINPYTGGAFYAQKFRGRVTMTRDTSISTAYMELSRLRSDDTAVYYCAREPERFGDSTGQVWGRGTLVTVSS VL: QAVLTQPPSVSGAPGQRVTISCTGSSSNIGAGYGVHWYQQLPGTAPKLLIYGNSNRPSGVPDRFSGSKSGTSASLAITGLQAEDEADYYCYHWDKEQSGYVFGGGTQLTVLG | binds |  |  |
| 356A11 human monoclonal anti-IL-22 antibody (Examples 10, 11, 14, 15) (antibody, V domains shown) VH: QVQLVQSGAEVKKPGASVKVSCKASGYTFTNYYMHWVRQAPGQGLEWVGWINPYTGSAFYAQKFRGRVTMTRDTSISTAYMELSRLRSDDTAVYYCAREPEKFDSDDSDVWGRGTLVTVSS VL: QAVLTQPPSVSGAPGQRVTISCTGSSSNIGAGYGVHWYQQLPGTAPKLLIYGDSNRPSGVPDRFSGSKSGTSASLAITGLQAEDEADYYCQSYDNSLSGYVFGGGTQLTVLG |  |  | binding [3]: binds; binding [4]: binds; binding [5]: binds; binding [6]: binds |
| 355B06 IgG (germlined) (antibody, V domains shown) VH: QVQLVQSGAEVKKPGASVKVSCKASGYTFTDYYMHWVRQAPGQGLEWVGWINPYTGSAFYAQKFRGRVTMTRDTSISTAYMELSRLRSDDTAVYYCAREPEKFGESSGQLWGRGTLVTVSS VL: QAVLTQPPSVSGAPGQRVTISCTGSSSNIGAGYGVHWYQQLPGTAPKLLIYGDSNRPSGVPDRFSGSKSGTSASLAITGLQAEDEADYYCQSYDSGLSGYVFGGGTQLTVLG | binds | binds |  |
| 356A11 IgG (germlined; Tables 6 and 9) (antibody, V domains shown) VH: QVQLVQSGAEVKKPGASVKVSCKASGYTFTNYYMHWVRQAPGQGLEWVGWINPYTGSAFYAQKFRGRVTMTRDTSISTAYMELSRLRSDDTAVYYCAREPEKFDSDDSDVWGRGTLVTVSS VL: QAVLTQPPSVSGAPGQRVTISCTGSSSNIGAGYGVHWYQQLPGTAPKLLIYGDSNRPSGVPDRFSGSKSGTSASLAITGLQAEDEADYYCQSYDNSLSGYVFGGGTQLTVLG | binds | binds |  |
| 062G05 IgG (non-germlined) (antibody, V domains shown) VH: QVQLVESGAEVKKPGASVKVSCKASGYTFTSYGISWVRQAPGQGLEWMGWISAYTGNTNYAQKFQGRVTMTTDTSTSTAYMELRSLRSDDTAVYYCARDRGYYDAFDIWGQGTLVTVSS VL: DIQMTQSPSTLSASIGDRVTITCRASEGIYHWLAWYQQKPGKAPKLLIYKASSLASGAPSRFSGSGFGTDFTLTISSLQPDDFATYYCQQMGEWKAAFGGGTKLEIKR | binds |  |  |
| 166G05 IgG (germlined) (antibody, V domains shown) VH: QVQLVQSGAEVKKPGASVKVSCKASGYTFSDYYIHWVRQAPGQGLEWMGWVNPDTGGTRYAQKFQGRVTMTRDMSISTAYMELSRLRSDDTAVYYCARDLTGFDPFDIWGQGTLVTVSS VL: SSVLTQPPSVSVAPGKTARITCGGNNFRNKRVHWYQQKPGQAPVLVIYYDSDRPSGIPERFSGSRSGNTATLTISRVEAGDEADYYCQVWDFLTDSGSFGGGTKLTVLG | binds |  |  |
| 087B03 IgG (germlined) (antibody, V domains shown) VH: EVQLVESGGGVVRPGGSLRLSCAASGFTFDDYGMNWVRQAPGKGLEWVSGVNWNGGTRDYAASVKGRFTISRDNAKNSLYLQMNSLRAEDTALYHCARGWYSGAAWNMGYWGRGTLVTVSS VL: QAALTQPASVSGSPGQSITISCTGASGDVGAYNFVSWYQQHPGKAPKLIIYDVNKRPSGVSNRFSGSKSGNTASLTISGLQAEDEADYYCSSYTSTFSVVFGGGTKLTVLG | binds |  |  |

Continued, in another order:

| binding [1] | binding [2] | Binder | other results |
| --- | --- | --- | --- |
| binds |  | 375G06 IgG (non-germlined) (antibody, V domains shown) VH: EVQLVQSGAEVKKPGASVKVSCQASGYTFSDYYIHWVRQTPGQGFEWMGWVNPDTGGTRYAQKFQGWVTMTRDMSNTTAYMELPRLRDDDTAVYYCARDLTGYDYYDRWGQGTLVTVSS VL: QSVLTQPPSMSVAPGKTATITCGGNNFRNKRVHWYQQRPGQAPVLVIYYDSDRPSGIPERFSGSRSGNTATLTISRVEAGDEADFYCQVWDFLADEAMFGGGTKLTVL |  |
| binds | binds | 355E04 IgG (germlined) (antibody, V domains shown) VH: QVQLVQSGAEVKKPGASVKVSCKASGYTFTHYYMHWVRQAPGQGLEWVGWINPYTGGAFYAQKFQGRVTMTRDTSISTAYMELSRLRSDDTAVYYCAREPEKFDSPNAEIWGRGTLVTVSS VL: QAVLTQPPSVSGAPGQRVTISCTGSSSNIGAGYGVHWYQQLPGTAPKLLIYGNSNRPSGVPDRFSGSKSGTSASLAITGLQAEDEADYYCQSYDSSLSGYVFGGGTQLTVLG |  |
| binds |  | 166B06 IgG (germlined) (antibody, V domains shown) VH: QVQLVQSGAEVKKPGASVKVSCKASGYTFSDYYIHWVRQAPGQGLEWMGWVNPDTGGTRYAQKFQGRVTMTRDMSISTAYMELSRLRSDDTAVYYCARDLTGFDPFDIWGQGTLVTVSS VL: SSVLTQPPSVSVAPGKTARITCGGNNFRNKRVHWYQQKPGQAPVLVIYYDSDRPSGIPERFSGSRSGNTATLTISRVEAGDEADYYCQVWDLFNDNGVFGGGTKLTVLG |  |
| binds |  | 367D04 IgG (non-germlined) (antibody, V domains shown) VH: EVQLVESGGGVVRPGGSLRLSCAASGFTFDDYGMNWVRQAPGKGLEWVSGVNWNGGTRDYAASVKGRFTISRDNAKNSLYLQMNSLRAEDTALYYCARGWYSGSPWSLGHWGRGTLVTVSS VL: QAVLTQPSSVSGSPGQSVTISCTGASGDVGAYNFVSWYQQHPGKTPKLIIYDVNKRPSGVSNRFSGSKSGNTASLTISRLQAEDESDYYCSSYTSRYTTEFGGGTKVTVLG |  |
| binds | binds | 368D04 IgG (non-germlined) (antibody, V domains shown) VH: EVQLVESGGGVVRPGGSLRLSCAASGFTFDDYGMNWVRQAPGKGLEWVSGVNWNGGTRDYAASVKGRFTISRDNAKNSLYLQMNSLRAEDTALYYCARGWYSGAAWNMGYWGRGTLVTVSS VL: QAVLTQPSSVSGSPGQSITISCTGASGDVGAYNFVSWYQQHPGKTPKLIIYDVNKRPSGVSNRFSGSKSGNTASLTISGLQAEDESDYYCASLVSDFSVVFGGGTKVTVLG |  |

No constants are given. Whether binding was seen depends on the method and setting. Binding calls can cover weak binding; strength is not graded here.
